The text below walks through data of paper PMC6315435.

By UniProt entry, the sequences of proteins in these tests, tags left out. Residues count along the entry.
UniProt P02769, 25-607: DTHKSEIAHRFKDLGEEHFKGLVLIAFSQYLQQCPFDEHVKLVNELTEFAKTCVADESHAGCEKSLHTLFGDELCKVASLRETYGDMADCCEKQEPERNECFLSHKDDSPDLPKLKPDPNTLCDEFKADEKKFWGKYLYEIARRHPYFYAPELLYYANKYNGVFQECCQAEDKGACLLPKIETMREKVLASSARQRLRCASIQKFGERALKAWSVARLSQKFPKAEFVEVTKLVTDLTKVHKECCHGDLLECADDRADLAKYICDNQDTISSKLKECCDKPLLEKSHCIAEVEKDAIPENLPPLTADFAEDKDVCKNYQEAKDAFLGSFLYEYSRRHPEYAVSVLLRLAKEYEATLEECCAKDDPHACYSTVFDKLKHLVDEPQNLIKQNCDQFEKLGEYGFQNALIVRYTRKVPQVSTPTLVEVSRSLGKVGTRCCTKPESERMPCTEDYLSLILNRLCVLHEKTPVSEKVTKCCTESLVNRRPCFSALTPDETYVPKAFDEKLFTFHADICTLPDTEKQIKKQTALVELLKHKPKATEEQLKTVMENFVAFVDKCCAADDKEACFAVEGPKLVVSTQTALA

What all share (experiment): FRET dye-quencher strand displacement by competitor DNA
In series [1] the target is BSA (bovine) (UniProt P02769). The following applies: 5000 nM BSA, 20 nM dye, 60 nM quencher, 30 nM competitor strand; 10 mM Tris-HCl, 50 mM NaCl, 3 mM MgCl2, 0.5 mM DTT (Figure 2 legend: 10 mM Tris-HCl, 150 mM NaCl, 2 mM MgCl2); commercial protein; label: 5' 6-FAM on strand 1, 3' Iowa Black FQ on strand 2.
Series [2] concerns NF-kB p65. The following applies: 50 nM p65, 20 nM dye, 60 nM quencher, 30 nM competitor strand; 10 mM Tris-HCl, 50 mM NaCl, 3 mM MgCl2, 0.5 mM DTT (Figure 2 legend: 10 mM Tris-HCl, 150 mM NaCl, 2 mM MgCl2); recombinant protein; label: 5' 6-FAM on strand 1, 3' Iowa Black FQ on strand 2.
Series [3] deals with NF-kB p50 + NF-kB p65. The conditions noted are these: 25 nM p50 + 25 nM p65 heterodimer, 20 nM dye, 60 nM quencher, 30 nM competitor strand; 10 mM Tris-HCl, 50 mM NaCl, 3 mM MgCl2, 0.5 mM DTT (Figure 2 legend: 10 mM Tris-HCl, 150 mM NaCl, 2 mM MgCl2); recombinant protein; label: 5' 6-FAM on strand 1, 3' Iowa Black FQ on strand 2.
Series [4] deals with NF-kB p50. The following applies: 50 nM p50, 20 nM dye, 60 nM quencher, 30 nM competitor strand, also p50 concentration series; 10 mM Tris-HCl, 50 mM NaCl, 3 mM MgCl2, 0.5 mM DTT (Figure 2 legend: 10 mM Tris-HCl, 150 mM NaCl, 2 mM MgCl2); recombinant protein; label: 5' 6-FAM on strand 1, 3' Iowa Black FQ on strand 2.

For some of these results: No signal at the amounts used counts as a negative. For some of these results: The exact form of at least one protein or probe is not confirmed.

Consider “TTGGGACTTTCCCAAGATAGTAAG / CTTGGGAAAGTCCCAA [Ig-kB dye-quencher probe]”, for which the binding result in series [1] was “no binding”; in series [2] it was “binds”; in series [3], “binds”; in series [4] it was “binds”.
